Test results: US9073854B2, “Aromatic sulfonium salt compound” (ADEKA CORPORATION, priority 2009, dated 2015)

Tests used:
[1] = Decomposition on exposure to light and resultant acid generation (titration); type: physicochemical; settings: 0.02 mmol/g acetonitrile solution; light of 365 nm, 0.8 mW/cm^2, 5 minutes; acid titer/theoretical mole number x 100
Procedure: A 0.02 mmol/g acetonitrile solution was prepared using each of compound Nos. 1 and 5 and comparative compound No. 1. A 5.00 g portion of the solution was put in a petri dish having an inner diameter of 93 mm and exposed to light of 365 nm at an irradiance of 0.8 mW/cm^2 for 5 minutes using a fluorescent lamp (FL10BL from Toshiba Corp.; tube length: 330 mm). The exposed solution was titrated with a 0.05 N ethanol solution of potassium hydroxide using BTB as a pH indicator. The titer as obtained was corrected by subtracting the titer of the solution before exposure determined in the same manner as a blank. The acid generation rate was calculated from the thus corrected titer according to the following formula. Acid generation rate(%)=acid titer(mol)/theoretical mole number of compound(mol)×100

[2] = Negative resist composition: amount of energy of exposure required for cure; settings: compounds in the form of a hexafluoroantimonate, EPPN-201 resist, light of 405 nm
Procedure: Compound No. 5 and comparative compound No. 1 in the form of a hexafluoroantimonate were each synthesized. A resin solution was prepared by dissolving 100 g of EPPN-201 from Nippon Kayaku in 100 g of methyl ethyl ketone (MEK). A 0.05 g portion of each of the hexafluoroantimonate salts was dissolved in 8.00 g of the resin solution to obtain a resist solution. The resist solution was applied to an aluminum plate with a #9 bar coater and dried at 80° C. for 10 minutes. The resist was patternwise exposed to light using an ultrahigh pressure mercury lamp and a spectrometer, baked at 80° C. for 10 minutes, immersed in MEK for 30 seconds to be developed, and washed with xylene. An amount of energy of exposure required for cure was calculated from the pattern formed by irradiation with light of 405 nm.

| SMILES | Acid Generation Rate (%) [1] | Amount of Exposure (J/cm^2) [2] |
| --- | --- | --- |
| Cn1c2ccccc2c(=O)c2cc([S+](c3ccc(O)cc3)c3ccc(O)cc3)ccc21 [Compound No. 1] | 35% |  |
| Cn1c2ccccc2c(=O)c2cc([S+](c3ccc(F)cc3)c3ccc(F)cc3)ccc21 [Comp. Compound No. 1, reference compound] | 6.7% | 1.9 J/cm^2 |
| Cn1c2ccccc2c(=O)c2cc([S+](c3ccc(O)cc3)c3ccc(O)cc3)ccc21 [Compound No. 2] | 19% |  |
| O=c1c2ccccc2n(Cc2cccc(O)c2)c2ccc([S+](c3ccc(F)cc3)c3ccc(F)cc3)cc12 [Compound No. 5] |  | 0.1 J/cm^2 |
